Our source for the binding values is patent publication CN110903397A.

Sequences of proteins named here, by UniProt entry; tags and fusion partners are left off. Residues count along the entry.
UniProt Q8NBP7, residues 31-692: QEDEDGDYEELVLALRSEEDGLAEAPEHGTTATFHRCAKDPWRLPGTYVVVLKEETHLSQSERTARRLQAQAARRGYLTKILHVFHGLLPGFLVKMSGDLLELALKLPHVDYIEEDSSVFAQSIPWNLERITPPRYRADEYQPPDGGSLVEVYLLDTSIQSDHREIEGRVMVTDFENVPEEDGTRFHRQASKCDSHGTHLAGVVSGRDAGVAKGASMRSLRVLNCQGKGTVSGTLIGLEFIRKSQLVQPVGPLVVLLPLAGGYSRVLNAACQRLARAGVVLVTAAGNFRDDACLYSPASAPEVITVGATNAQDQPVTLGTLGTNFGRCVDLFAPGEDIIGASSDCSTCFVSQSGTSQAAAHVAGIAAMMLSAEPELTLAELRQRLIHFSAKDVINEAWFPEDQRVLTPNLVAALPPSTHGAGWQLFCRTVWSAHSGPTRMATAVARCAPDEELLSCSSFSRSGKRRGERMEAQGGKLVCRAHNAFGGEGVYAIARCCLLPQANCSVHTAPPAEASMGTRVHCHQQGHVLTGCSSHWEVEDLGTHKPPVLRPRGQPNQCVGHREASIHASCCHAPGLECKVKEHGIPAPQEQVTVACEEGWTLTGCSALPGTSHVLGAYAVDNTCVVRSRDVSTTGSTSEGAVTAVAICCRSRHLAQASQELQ

Assay [1] deals with 重组人PCSK9蛋白 (人前蛋白转化酶枯草溶菌素9) (human) (UniProt Q8NBP7). The assay is described as follows: indirect phage ELISA, PCSK9 coated, HRP-anti-M13 detection.
For assay [2] the target is unchanged. The assay is described as follows: immunoblot, recombinant PCSK9 as antigen, HRP goat anti-human secondary antibody. Background: Immunoblotting shows a protein as a band on a membrane.

These are yes or no findings as the source states them, for the method shown. Some entries that bind do so weakly or less than the wild type.

B1: 噬菌体展示的PCSK9特异性全人源scFv (目标噬菌体) (scFv, V domains shown)
VH: QVQLVQSGAEVKKPGSSVKVSCQASGGTFSGYDIHWVRQATGQGLEWMGWMNPHSGNAGYAQKFQGRVTMTRDTSTATAYMELTSLTSDDTAVYYCARYAQLSLEWGQGTLVTVSS
VL: EIVLTQSPVTLSVSPGERATLSCRASQSVIGNLAWYQQKPGQAPRLLIYGASARAAGIPDRFSGSGSGTDFTLTISSLKSEDFAVYYCQQYGSSPYTFGQGTKLEIK
As to B1, the binding entry in assay [1] is “binds”.

B2: 人PCSK9特异性全人源抗体3D2 (antibody, human IgG1, V domains shown)
VH: QVQLVQSGAEVKKPGSSVKVSCQASGGTFSGYDIHWVRQATGQGLEWMGWMNPHSGNAGYAQKFQGRVTMTRDTSTATAYMELTSLTSDDTAVYYCARYAQLSLEWGQGTLVTVSS
VL: EIVLTQSPVTLSVSPGERATLSCRASQSVIGNLAWYQQKPGQAPRLLIYGASARAAGIPDRFSGSGSGTDFTLTISSLKSEDFAVYYCQQYGSSPYTFGQGTKLEIK
With B2, in assay [2], the binding result was “binds”.
